Results reported in paper PMC4726005.
Results are given in words; binding and its absence hold for the method and conditions named.

By UniProt entry, the sequences of proteins in these tests, tags left out. Residues count along the entry.
UniProt Q92542, residues 664-709: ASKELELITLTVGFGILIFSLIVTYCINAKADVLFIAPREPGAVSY

How the values were obtained:
[1] = biological target: human nicastrin TM domain and C-terminus (residues A664-Y709) (human) (UniProt Q92542); experiment: NMR (1H-15N HSQC spectrum and 15N relaxation analysis); 0.8 mM nicastrin in 200 mM DPC micelles, 20 mM sodium phosphate pH 6.5, 1 mM DTT, 313 K; both purified
[2] = biological target: human nicastrin TM domain and C-terminus (residues A664-Y709) (human) (UniProt Q92542); experiment: NMR (1H-15N HSQC spectrum and 15N relaxation analysis); 0.8 mM nicastrin in 100 mM SDS micelles, 20 mM sodium phosphate pH 6.5, 1 mM DTT, 313 K; both purified

In the case of “human nicastrin TM domain and C-terminus (residues A664-Y709) (from UniProt Q92542 664-709) (domain or fragment)”, the binding [1] is reported as “no binding (tested: 0.8 mM)” and the binding [2] is reported as “no binding (tested: 0.8 mM)”.
